Source: article PMC3770571
No constants are given. Whether binding was seen depends on the method and setting. For part of these data: Binding seen in cells or lysates may run through a third protein. Some results given as binding are weak or reduced against the parent protein; the word gives no strength. For part of these data: Tags and fused reporters may be left off the sequences shown.

By UniProt entry, the sequences of proteins in these tests, tags left out. Where a name states a change or a piece, a line headed by the entry shows the natural chain unless it says otherwise. Residues count along the entry.
UniProt Q9QR71: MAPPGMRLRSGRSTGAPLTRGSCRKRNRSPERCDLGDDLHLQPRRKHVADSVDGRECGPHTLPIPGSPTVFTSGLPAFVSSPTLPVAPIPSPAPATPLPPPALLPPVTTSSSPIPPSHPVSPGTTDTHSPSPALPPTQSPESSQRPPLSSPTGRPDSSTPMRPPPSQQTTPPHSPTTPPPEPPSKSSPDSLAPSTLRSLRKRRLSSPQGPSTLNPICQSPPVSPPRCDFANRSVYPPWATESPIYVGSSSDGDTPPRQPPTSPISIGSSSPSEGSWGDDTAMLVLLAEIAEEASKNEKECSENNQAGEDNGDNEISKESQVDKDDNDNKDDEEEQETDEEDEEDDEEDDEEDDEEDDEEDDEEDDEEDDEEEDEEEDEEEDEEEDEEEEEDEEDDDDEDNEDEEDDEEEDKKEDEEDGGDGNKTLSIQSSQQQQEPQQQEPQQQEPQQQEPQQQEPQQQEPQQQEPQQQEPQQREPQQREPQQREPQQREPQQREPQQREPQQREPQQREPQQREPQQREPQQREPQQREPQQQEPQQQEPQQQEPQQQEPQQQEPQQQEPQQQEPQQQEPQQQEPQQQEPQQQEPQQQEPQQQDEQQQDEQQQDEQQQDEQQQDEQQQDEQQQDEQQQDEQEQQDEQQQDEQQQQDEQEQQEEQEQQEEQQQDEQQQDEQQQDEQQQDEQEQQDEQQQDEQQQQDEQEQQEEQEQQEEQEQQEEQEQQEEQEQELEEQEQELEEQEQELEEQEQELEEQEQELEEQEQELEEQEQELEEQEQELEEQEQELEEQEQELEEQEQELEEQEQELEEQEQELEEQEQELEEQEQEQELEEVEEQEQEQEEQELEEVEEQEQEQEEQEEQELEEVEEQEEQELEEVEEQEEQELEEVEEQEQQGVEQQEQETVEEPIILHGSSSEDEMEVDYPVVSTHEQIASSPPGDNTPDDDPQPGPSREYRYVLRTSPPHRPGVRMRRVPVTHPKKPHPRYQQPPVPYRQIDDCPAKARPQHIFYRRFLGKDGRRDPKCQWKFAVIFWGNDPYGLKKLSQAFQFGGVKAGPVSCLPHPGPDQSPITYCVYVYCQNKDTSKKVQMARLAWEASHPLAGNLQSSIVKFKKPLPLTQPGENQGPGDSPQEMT
GAL4-DBD-LANA 1–340 aa (bait) (KSHV (HHV8)): residues 1-340 of Q9QR71
GST-LANA1–32 (wt CBD) (KSHV (HHV8)): residues 1-32 of Q9QR71
UniProt Q92522: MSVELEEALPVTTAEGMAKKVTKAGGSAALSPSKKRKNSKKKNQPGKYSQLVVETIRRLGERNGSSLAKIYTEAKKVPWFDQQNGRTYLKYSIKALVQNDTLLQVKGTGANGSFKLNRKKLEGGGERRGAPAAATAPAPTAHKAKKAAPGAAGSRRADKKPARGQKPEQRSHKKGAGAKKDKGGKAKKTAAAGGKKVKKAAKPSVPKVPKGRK

Columns and labels:
[1] = biological target: LANA 1–340 fused to GFP-C term (KSHV (HHV8)) (UniProt Q9QR71); assay: split reporter
[2] = biological target: LANA 1–32 fused to GFP-C term (158–238 aa) (KSHV (HHV8)) (UniProt Q9QR71); assay: split reporter
[3] = biological target: GST-LANA1–32 (wt CBD) (KSHV (HHV8)) (UniProt Q9QR71); assay: pull-down; only the target purified
[4] = biological target: GST-LANA-N (1–340 aa) (KSHV (HHV8)) (UniProt Q9QR71); assay: pull-down; only the target purified
[5] = biological target: LANA 1–340 aa-myc (wt CBD) (KSHV (HHV8)) (UniProt Q9QR71); assay: co-IP; H1 and H2B co-expressed together with LANA 1-340 aa; data not shown
[6] = biological target: LANA 1–340 aa-myc (wt CBD) (KSHV (HHV8)) (UniProt Q9QR71); assay: co-IP
[7] = biological target: GAL4-DBD-LANA 1–340 aa (bait) (KSHV (HHV8)) (UniProt Q9QR71); assay: two-hybrid
[8] = biological target: LANA-FL-myc (wt CBD), expressed in cells (KSHV (HHV8)) (UniProt Q9QR71); assay: co-IP

For “histone H1 fused with GFP-N term (1–157 aa) (from UniProt Q92522 1-213)”, the binding [1] was “binds” and the binding [2] was “binds”.

“in-vitro translated histone H1 (H1.x) (from UniProt Q92522 1-213)” was tested, and the binding [3] was “binds” and the binding [4] was “binds”.

“HA tagged histone H1 (H1.x) (from UniProt Q92522 1-213)” was tested, and the binding [5] was “binds”, the binding [3] was “binds” and the binding [6] was “binds”.

In the case of “GAL4-ACT-histone H1 (prey) (from UniProt Q92522 1-213)”, the binding [7] is reported as “binds”.

B1: GAL4-ACT-HMG-N1 (prey) (protein, UniProt P05114 1-100)
chain: MPKRKVSSAEGAAKEEPKRRSARLSAKPPAKVEAKPKKAAAKDKSSDKKVQTKGKRGAKGKQAEVANQETKEDLPAENGETKTEESPASDEAGEKEAKSD
With B1 the binding [7] was “binds”.

B2: HA tagged HMG-N1 (protein, UniProt P05114 1-100)
chain: MPKRKVSSAEGAAKEEPKRRSARLSAKPPAKVEAKPKKAAAKDKSSDKKVQTKGKRGAKGKQAEVANQETKEDLPAENGETKTEESPASDEAGEKEAKSD
With B2 the binding [8] was “binds”.

B3: GAL4-ACT-DEK (prey) (protein, UniProt P35659 1-375)
chain: MSASAPAAEGEGTPTQPASEKEPEMPGPREESEEEEDEDDEEEEEEEKEKSLIVEGKREKKKVERLTMQVSSLQREPFTIAQGKGQKLCEIERIHFFLSKKKTDELRNLHKLLYNRPGTVSSLKKNVGQFSGFPFEKGSVQYKKKEEMLKKFRNAMLKSICEVLDLERSGVNSELVKRILNFLMHPKPSGKPLPKSKKTCSKGSKKERNSSGMARKAKRTKCPEILSDESSSDEDEKKNKEESSDDEDKESEEEPPKKTAKREKPKQKATSKSKKSVKSANVKKADSSTTKKNQNSSKKESESEDSSDDEPLIKKLKKPPTDEELKETIKKLLASANLEEVTMKQICKKVYENYPTYDLTERKDFIKTTVKELIS
B3 was tested, and the binding [7] was “binds”.

B4: HA tagged DEK (protein, UniProt P35659 1-375)
chain: MSASAPAAEGEGTPTQPASEKEPEMPGPREESEEEEDEDDEEEEEEEKEKSLIVEGKREKKKVERLTMQVSSLQREPFTIAQGKGQKLCEIERIHFFLSKKKTDELRNLHKLLYNRPGTVSSLKKNVGQFSGFPFEKGSVQYKKKEEMLKKFRNAMLKSICEVLDLERSGVNSELVKRILNFLMHPKPSGKPLPKSKKTCSKGSKKERNSSGMARKAKRTKCPEILSDESSSDEDEKKNKEESSDDEDKESEEEPPKKTAKREKPKQKATSKSKKSVKSANVKKADSSTTKKNQNSSKKESESEDSSDDEPLIKKLKKPPTDEELKETIKKLLASANLEEVTMKQICKKVYENYPTYDLTERKDFIKTTVKELIS
For B4, the binding [8] was “binds”.
